The values that follow come from publication PMC7812317.

Sequences of proteins named here, by UniProt entry; tags and fusion partners are left off.
UniProt P53350: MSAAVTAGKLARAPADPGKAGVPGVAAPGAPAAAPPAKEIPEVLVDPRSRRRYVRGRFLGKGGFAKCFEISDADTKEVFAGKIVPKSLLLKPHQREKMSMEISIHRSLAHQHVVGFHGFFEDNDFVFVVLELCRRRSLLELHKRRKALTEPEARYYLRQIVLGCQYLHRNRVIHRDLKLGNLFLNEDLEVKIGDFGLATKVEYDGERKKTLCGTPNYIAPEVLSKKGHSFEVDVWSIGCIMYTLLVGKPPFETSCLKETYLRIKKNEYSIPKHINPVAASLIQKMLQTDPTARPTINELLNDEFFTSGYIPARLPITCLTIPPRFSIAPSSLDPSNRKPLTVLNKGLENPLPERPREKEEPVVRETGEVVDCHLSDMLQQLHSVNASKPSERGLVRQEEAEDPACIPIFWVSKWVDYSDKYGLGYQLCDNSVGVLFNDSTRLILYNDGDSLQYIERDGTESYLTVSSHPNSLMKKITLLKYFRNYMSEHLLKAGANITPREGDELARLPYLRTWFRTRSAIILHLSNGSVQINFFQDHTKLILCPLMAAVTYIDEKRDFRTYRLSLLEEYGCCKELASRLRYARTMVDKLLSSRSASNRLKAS

The target in experiment [1] is Polo-like kinase 1 (human (endogenous in hTERT-RPE1)) (UniProt P53350). As to the kind of experiment: co-IP; anti-PLK1 antibody (IgG overnight at 4°C, Protein A/G Ultralink beads) on 2 mg cytoplasmic extract of RPE cells synchronised in G2; blots of bound proteins.
Experiment [2] addresses Cyclin A2 (human (endogenous in hTERT-RPE1)) (UniProt P20248). As to the kind of experiment: co-IP; anti-CycA2 antibody (1-1.5 ug IgG overnight at 4°C, Protein A/G Ultralink beads) on 2 mg cytoplasmic extract of RPE cells synchronised in G2; 150 mM NaCl, 0.1% Triton X-100; blots of bound proteins.
Experiment [3] has the same target. As to the kind of experiment: co-IP; anti-CycA2 antibody (1-1.5 ug IgG overnight at 4°C, Protein A/G Ultralink beads) on 2 mg nuclear extract of RPE cells synchronised in G2; 150 mM NaCl, 0.1% NP-40; blots of bound proteins.

No constants are given. Whether binding was seen depends on the method and setting. Binding seen in cells or lysates may run through a third protein. Some binding calls cover weakened binding; strength is not graded here.

As to Bora (from UniProt Q6PGQ7 1-559), the binding result in experiment [1] and in experiment [2] was “binds” throughout.
Regarding “Polo-like kinase 1 (from UniProt P53350 1-603) (enzyme)”, the binding result is recorded as “no binding (condition: in the nuclear extract)” in experiment [3] and “binds” in experiment [2].
